For part of these data: At least one structure is not confirmed: it was looked up by name or label, or the drawing left a doubt. Some entries share one result that the patent states for a list of compounds.
Tests used:
colon cancer cells = assay: Protein expression level changes after treatment with FAK inhibitors (in-solution digestion, protein identification, expression ratios, FIG. 14); format: cell-based, human; design: ZYX expression level / ELAVL1 expression level / SYNE1 expression level: dose or concentration left out as unconfirmed; conditions: 2 hours (FIG. 14)
Description: A human colon cancer cell line, HCT-116, was cultured using an RPMI-1640 medium containing 10% (v/v) heat-inactivated FBS and 1% (v/v) penicillin/streptomycin in a 60 mm plastic culture plate (Corning Life Science, Acton, Mass., USA) until its cell density reached 2×10^6 cells/cm^2. The culture was performed in a humidified incubator of 5% CO2 at 37° C. The cells were starved for 24 hours and washed with serum-free medium. FGF signaling was amplified by adding 10 ng/mL of EGF, IGF, PMA, and PDGF, followed by further incubation for 2 hours. Thereafter, the cells were harvested and collected by centrifugation at a speed of 300 g for 5 minutes. Cell membranes were disrupted using a sonicator, and centrifuged at a speed of 13,000 g for 30 minutes to collect lysed intracellular proteins. Further, to compare the amounts of expressed FAK-binding proteins by using defactinib (VS-6063) and PF-573228, which are FAK inhibitors, independently or simultaneously, normal intestinal epidermal cells and colon cancer cells were each treated with FAK inhibitors at three different final concentrations […], 1 mM, and 10 mM (2 hours), and then cells were collected and subjected to in-solution digestion to isolate and identify the proteins.

[1] = tested on: colon cancer cell line HCT-116; assay: Nano-LC/high-resolution MS identification of FAK-binding proteins with increased expression after treatment with FAK signaling substances; format: cell-based, human; conditions: HCT-116, compared with cells not treated with the FAK signaling substance (FIGS. 13A to 13D)
[2] = FAK inhibitor 0.1 mM, 1 mM, 10 mM, change only with VS-6063

| Compound | ELAVL1 expression level (colon cancer cells) | SYNE1 expression level (colon cancer cells) | ZYX expression level (colon cancer cells) | MAP2K2 expression level (colon cancer cells; [2]) | PPP2 expression level (colon cancer cells; [2]) | expression of FAK-binding proteins (SYNE1, TJP3, ELAVL4, ARHGEF10L, DSP detected reproducibly) [1] [fold] |
| --- | --- | --- | --- | --- | --- | --- |
| CNC(=O)c1ccc(Nc2ncc(C(F)(F)F)c(NCc3nccnc3N(C)S(C)(=O)=O)n2)cc1 [VS-6063, defactinib] | statistically significant reduction | statistically significant reduction | statistically significant reduction | statistically significant reduction | statistically significant reduction |  |
| PDGF |  |  |  |  |  | ≥ 10 |

From patent US11408886B2, “Method of screening for novel therapeutic targets to develop therapeutic agents for colon cancer and prognostic biomarkers for colon cancer treatment screened using the same” (KOREA INSTITUTE OF SCIENCE AND TECHNOLOGY, priority 2018, dated 2022)
